Data taken from patent publication US20240294622A1.
These are yes or no findings as the source states them, for the method shown. Some results given as binding are weak or reduced against the parent protein; the word gives no strength. Sequences can lack the tags named with a protein. Values belong to the binder of their own block, whether it stands above or below them.

Amino acid sequences for entries named in this document (tags omitted). Residues count along the entry.
UniProt P11362, residues 22-376: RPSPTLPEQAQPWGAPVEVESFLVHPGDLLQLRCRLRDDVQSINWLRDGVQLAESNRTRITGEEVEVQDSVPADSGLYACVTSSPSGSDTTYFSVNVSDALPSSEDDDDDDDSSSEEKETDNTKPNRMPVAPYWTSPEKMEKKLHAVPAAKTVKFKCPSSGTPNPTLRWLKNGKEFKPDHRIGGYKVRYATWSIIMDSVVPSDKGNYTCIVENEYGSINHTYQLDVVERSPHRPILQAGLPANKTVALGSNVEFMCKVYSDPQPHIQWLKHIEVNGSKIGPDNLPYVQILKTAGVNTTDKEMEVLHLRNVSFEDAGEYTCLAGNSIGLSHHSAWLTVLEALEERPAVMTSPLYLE

Experiments:
[1] = target: recombinant human FGFR1-Fc (Sino-Biological) (human) (UniProt P11362); test: ELISA: coated FGFR1-Fc 2 µg/ml, gremlin-his titrated, anti-his HRP
[2] = target: recombinant human FGFR1-Fc (Sino-Biological) (human) (UniProt P11362); test: ELISA, coated FGFR1-Fc 2 ug/ml, gremlin-his (ACRO) titrated from 2 ug/ml
[3] = target: T1, human BMP7 (R&D) (human), P18075; test: ELISA: coated BMP7, gremlin titrated (sheet title: BMP2/4/7 binding to human gremlin-his); settings: remark: other sources report otherwise
T1 chain: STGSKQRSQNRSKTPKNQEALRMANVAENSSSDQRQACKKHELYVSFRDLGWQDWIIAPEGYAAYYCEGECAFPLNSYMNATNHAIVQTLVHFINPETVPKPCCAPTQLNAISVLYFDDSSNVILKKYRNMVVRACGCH

[4] = target: T1, human BMP7 (R&D) (human), P18075; test: ELISA, coated BMP7 0.5 ug/ml; settings: remark: other sources report otherwise

- binding [1]: binds
- binding [2]: binds
B1: HGREM1-His (ACRO) (ligand, not shown: small tags and cut ends)
chain: KKKGSQGAIPPPDKAQHNDSEQTQSPQQPGSRNRGRGQGRGTAMPGEEVLESSQEALHVTERKYLKRDWCKTQPLKQTIHEEGCNSRTIINRFCYGQCNSFYIPRHIRKEEGSFQSCSFCKPKKFTTMMVTLNCPELQPPTKKKRVTRVKQCRCISIDLD

- binding [3]: binds
B2: HGREM1-His (ACRO), O60565 25-184 (ligand, not shown: small tags and cut ends)
chain: B1 chain

- binding [4]: binds
B3: Gremlin-Fc, O60565 25-184 (Fc fusion, not shown: a dimerising Fc or GST)
chain: B1 chain
